Values from PubChem BioAssay AID1259308 (NCATS, 2017)

Aim: 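Genes whose loss raises luciferase production in HEK293 cells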 (primary screen)
Cells: human HEK293 embryonic kidney cells stably expressing firefly luciferase (HEK-CMV-Luc2-Hygro)
Reagents: single siRNA against human genes, 0.8 pmol siRNA per well
Time to read-out: 72 h
Read-out: 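Luciferase light (ONE-Glo) measured on one replicate plate set and viability (CellTiter-Glo) on the other, scaled to a negative control siRNA, with robust z-scores and luciferase per cell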
Scale: total luciferase, z-score: higher = more reporter protein produced
Active means: 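An siRNA counts as active if its total luciferase robust z-score exceeds 3; genes with two or more such siRNAs out of three were retested with fresh siRNAs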
Meaning of the calls: active = raised luciferase; inactive = no rise
In all, the deposit lists about 59,000 reagents; below is a part drawn at random. About 1,510 of them (2.6%) were called active. 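Calls use total luciferase alone and ignore viability, so some active siRNAs may act by altering cell number.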 The numbers tell different reagents against one gene apart. Not all columns of the deposit are shown. No sequences are given here.

GGNBP2 #1: total luciferase, z-score = 0.113; call = inactive
GGNBP2 #2: total luciferase, z-score = -0.877; call = inactive
GGNBP2 #3: total luciferase, z-score = 3.32; call = active
USP10 #1: total luciferase, z-score = -0.722; call = inactive
USP10 #2: total luciferase, z-score = 0.312; call = inactive
USP10 #3: total luciferase, z-score = -0.351; call = inactive
PCDHGC5 #1: total luciferase, z-score = -0.19; call = inactive
PCDHGC5 #2: total luciferase, z-score = -0.193; call = inactive
PCDHGC5 #3: total luciferase, z-score = -0.223; call = inactive
CFAP20DC #1: total luciferase, z-score = -0.00644; call = inactive
CFAP20DC #2: total luciferase, z-score = -0.0926; call = inactive
CFAP20DC #3: total luciferase, z-score = 1.29; call = inactive
MRPL15 #1: total luciferase, z-score = -0.226; call = inactive
MRPL15 #2: total luciferase, z-score = 1.28; call = inactive
MRPL15 #3: total luciferase, z-score = 1.45; call = inactive
ORC6 #1: total luciferase, z-score = -0.533; call = inactive
ORC6 #2: total luciferase, z-score = -0.0282; call = inactive
ORC6 #3: total luciferase, z-score = -1.61; call = inactive
ZNF816 #1: total luciferase, z-score = -0.0113; call = inactive
ZNF816 #2: total luciferase, z-score = -0.515; call = inactive
ZNF816 #3: total luciferase, z-score = 1.46; call = inactive
NREP #1: total luciferase, z-score = 0.766; call = inactive
NREP #2: total luciferase, z-score = -1.21; call = inactive
NREP #3: total luciferase, z-score = 0.0595; call = inactive
VPS29 #1: total luciferase, z-score = -0.288; call = inactive
VPS29 #2: total luciferase, z-score = -1.03; call = inactive
VPS29 #3: total luciferase, z-score = -0.84; call = inactive
B3GLCT #1: total luciferase, z-score = 0.535; call = inactive
B3GLCT #2: total luciferase, z-score = -0.109; call = inactive
B3GLCT #3: total luciferase, z-score = 2.99; call = inactive
KCNT1 #1: total luciferase, z-score = -0.806; call = inactive
KCNT1 #2: total luciferase, z-score = -0.631; call = inactive
KCNT1 #3: total luciferase, z-score = 0.0604; call = inactive

5 successive reagents from above, for reference:
CFAP20DC #2: total luciferase, z-score = -0.0926; call = inactive
CFAP20DC #3: total luciferase, z-score = 1.29; call = inactive
MRPL15 #1: total luciferase, z-score = -0.226; call = inactive
MRPL15 #2: total luciferase, z-score = 1.28; call = inactive
MRPL15 #3: total luciferase, z-score = 1.45; call = inactive
